Measured values published in paper PMC11239871.
These are yes or no findings as the source states them, for the method shown. In cells and extracts the contact can be indirect. Some results given as binding are weak or reduced against the parent protein; the word gives no strength. Tags and fused reporters may be left off the sequences shown.

The chains behind the UniProt entries cited, without tags or fusion partners.
UniProt Q9QZL0: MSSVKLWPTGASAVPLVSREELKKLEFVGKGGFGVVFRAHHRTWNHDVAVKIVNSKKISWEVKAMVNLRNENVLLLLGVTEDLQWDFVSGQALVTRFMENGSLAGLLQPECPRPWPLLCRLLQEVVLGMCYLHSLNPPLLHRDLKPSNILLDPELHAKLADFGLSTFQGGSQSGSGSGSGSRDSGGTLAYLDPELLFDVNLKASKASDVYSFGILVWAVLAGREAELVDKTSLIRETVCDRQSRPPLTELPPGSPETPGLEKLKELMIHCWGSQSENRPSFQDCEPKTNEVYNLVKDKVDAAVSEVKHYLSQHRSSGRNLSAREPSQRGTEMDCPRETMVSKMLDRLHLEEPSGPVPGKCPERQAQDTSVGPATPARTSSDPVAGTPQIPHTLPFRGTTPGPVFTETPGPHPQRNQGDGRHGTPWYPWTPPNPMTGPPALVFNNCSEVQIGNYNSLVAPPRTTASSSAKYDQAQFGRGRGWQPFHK

T1: Flag-tagged wild-type full-length mouse ZBP1 (mouse) (UniProt Q9QY24)
T1 sequence: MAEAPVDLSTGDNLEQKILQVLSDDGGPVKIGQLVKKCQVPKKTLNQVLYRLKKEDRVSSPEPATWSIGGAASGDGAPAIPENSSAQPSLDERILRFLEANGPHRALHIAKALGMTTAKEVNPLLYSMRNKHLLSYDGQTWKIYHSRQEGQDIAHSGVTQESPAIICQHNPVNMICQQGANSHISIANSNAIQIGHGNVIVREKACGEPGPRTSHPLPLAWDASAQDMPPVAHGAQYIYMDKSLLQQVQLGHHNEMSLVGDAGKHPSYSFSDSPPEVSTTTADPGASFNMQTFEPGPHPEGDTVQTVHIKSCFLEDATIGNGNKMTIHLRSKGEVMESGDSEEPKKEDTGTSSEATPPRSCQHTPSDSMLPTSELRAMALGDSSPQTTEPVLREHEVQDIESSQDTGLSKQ

T2: Flag-tagged C-terminally truncated constitutively active mouse ZBP1 (ZBP1ca) (mouse) (UniProt Q9QY24)
T2 sequence: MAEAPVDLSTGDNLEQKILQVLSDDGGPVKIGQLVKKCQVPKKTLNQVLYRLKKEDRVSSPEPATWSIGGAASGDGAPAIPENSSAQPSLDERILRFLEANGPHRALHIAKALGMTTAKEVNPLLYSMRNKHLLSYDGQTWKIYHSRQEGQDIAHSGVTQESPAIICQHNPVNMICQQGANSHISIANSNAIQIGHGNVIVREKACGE

T3: Flag-tagged wild-type full-length mouse ZBP1 (mouse), Q9QY24
T3 chain: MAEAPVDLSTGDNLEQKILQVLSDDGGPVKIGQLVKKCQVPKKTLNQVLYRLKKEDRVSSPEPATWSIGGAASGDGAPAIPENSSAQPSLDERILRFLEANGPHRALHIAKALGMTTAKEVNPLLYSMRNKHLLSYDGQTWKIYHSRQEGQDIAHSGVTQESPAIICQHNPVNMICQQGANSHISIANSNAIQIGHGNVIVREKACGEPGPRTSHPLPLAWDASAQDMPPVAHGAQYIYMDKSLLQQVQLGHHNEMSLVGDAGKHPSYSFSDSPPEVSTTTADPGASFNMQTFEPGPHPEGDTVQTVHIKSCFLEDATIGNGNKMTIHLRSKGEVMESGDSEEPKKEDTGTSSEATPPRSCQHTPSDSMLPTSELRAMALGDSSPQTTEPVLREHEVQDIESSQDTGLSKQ


Experiments:
Assay in all cases: co-IP; anti-Flag (M2 Flag beads) immunoprecipitation from lysates of iMEFs stimulated with doxycycline for 12 h, no caspase inhibitor; ALB lysis buffer (30 mM Tris HCl pH 7.5, 40 mM NaCl, 2 mM EDTA, 2 mM KCl, 10% glycerin, 1% Triton X-100); overnight; immunoblot for RIPK3 and RIPK1
[1] = target: T1, Flag-tagged wild-type full-length mouse ZBP1 (mouse)
[2] = target: T2, Flag-tagged C-terminally truncated constitutively active mouse ZBP1 (ZBP1ca) (mouse)
[3] = target: T3, Flag-tagged wild-type full-length mouse …; settings: remark: other sources report otherwise

Row | Molecule | binding [1] | binding [2] | binding [3]
1 | RIPK3 (from UniProt Q9QZL0 1-486) | binds | binds | 
2 | RIPK1, Q60855 1-656 (protein) MQPDMSLDNIKMASSDLLEKTDLDSGGFGKVSLCYHRSHGFVILKKVYTGPNRAEYNEVLLEEGKMMHRLRHSRVVKLLGIIIEEGNYSLVMEYMEKGNLMHVLKTQIDVPLSLKGRIIVEAIEGMCYLHDKGVIHKDLKPENILVDRDFHIKIADLGVASFKTWSKLTKEKDNKQKEVSSTTKKNNGGTLYYMAPEHLNDINAKPTEKSDVYSFGIVLWAIFAKKEPYENVICTEQFVICIKSGNRPNVEEILEYCPREIISLMERCWQAIPEDRPTFLGIEEEFRPFYLSHFEEYVEEDVASLKKEYPDQSPVLQRMFSLQHDCVPLPPSRSNSEQPGSLHSSQGLQMGPVEESWFSSSPEYPQDENDRSVQAKLQEEASYHAFGIFAEKQTKPQPRQNEAYNREEERKRRVSHDPFAQQRARENIKSAGARGHSDPSTTSRGIAVQQLSWPATQTVWNNGLYNQHGFGTTGTGVWYPPNLSQMYSTYKTPVPETNIPGSTPTMPYFSGPVADDLIKYTIFNSSGIQIGNHNYMDVGLNSQPPNNTCKEESTSRHQAIFDNTTSLTDEHLNPIRENLGRQWKNCARKLGFTESQIDEIDHDYERDGLKEKVYQMLQKWLMREGTKGATVGKLAQALHQCCRIDLLNHLIRASQS |  |  | no binding
